This is an account of results in paper PMC5085252.

Amino acid sequences for entries named in this document (tags omitted). A change or cut given only in a name is not applied to a line headed by its entry.
UniProt Q9LD28: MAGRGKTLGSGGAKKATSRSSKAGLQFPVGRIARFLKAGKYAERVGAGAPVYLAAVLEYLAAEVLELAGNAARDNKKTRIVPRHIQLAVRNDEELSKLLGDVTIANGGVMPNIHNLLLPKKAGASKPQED
UniProt O81826: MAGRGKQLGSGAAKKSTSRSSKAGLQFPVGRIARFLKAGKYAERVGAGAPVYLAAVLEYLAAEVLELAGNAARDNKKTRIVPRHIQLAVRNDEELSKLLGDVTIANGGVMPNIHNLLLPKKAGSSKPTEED
UniProt Q9C681: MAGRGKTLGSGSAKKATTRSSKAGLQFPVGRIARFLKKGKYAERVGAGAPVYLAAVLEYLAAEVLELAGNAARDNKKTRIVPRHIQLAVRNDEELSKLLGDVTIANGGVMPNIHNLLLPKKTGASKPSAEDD
UniProt Q9LHQ5: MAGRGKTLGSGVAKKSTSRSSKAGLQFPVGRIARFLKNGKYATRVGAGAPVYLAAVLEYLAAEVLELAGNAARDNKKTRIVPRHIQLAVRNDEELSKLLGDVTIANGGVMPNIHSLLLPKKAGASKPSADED
UniProt Q9FJE8: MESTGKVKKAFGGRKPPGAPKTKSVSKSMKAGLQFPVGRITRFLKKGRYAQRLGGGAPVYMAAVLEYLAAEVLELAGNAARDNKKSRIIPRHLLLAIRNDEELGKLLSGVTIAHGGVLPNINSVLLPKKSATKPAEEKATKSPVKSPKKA
UniProt Q94F49: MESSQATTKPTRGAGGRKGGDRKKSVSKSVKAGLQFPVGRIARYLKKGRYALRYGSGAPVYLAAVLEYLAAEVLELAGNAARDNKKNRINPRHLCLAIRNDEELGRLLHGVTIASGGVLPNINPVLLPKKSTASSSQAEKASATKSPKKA
UniProt Q9S9K7: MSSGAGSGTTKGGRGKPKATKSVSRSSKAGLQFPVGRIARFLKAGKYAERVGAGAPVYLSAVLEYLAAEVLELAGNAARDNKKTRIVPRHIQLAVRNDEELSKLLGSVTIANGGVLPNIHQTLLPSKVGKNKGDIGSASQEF
UniProt O04848: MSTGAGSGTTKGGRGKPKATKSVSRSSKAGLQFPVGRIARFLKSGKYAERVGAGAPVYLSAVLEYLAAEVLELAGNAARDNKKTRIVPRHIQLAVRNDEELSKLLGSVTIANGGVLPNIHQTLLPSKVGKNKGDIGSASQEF
UniProt Q9C944: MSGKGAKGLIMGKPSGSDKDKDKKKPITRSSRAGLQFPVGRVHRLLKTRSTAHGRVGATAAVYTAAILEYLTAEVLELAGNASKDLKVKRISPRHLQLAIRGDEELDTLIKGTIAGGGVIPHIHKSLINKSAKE
UniProt O23628: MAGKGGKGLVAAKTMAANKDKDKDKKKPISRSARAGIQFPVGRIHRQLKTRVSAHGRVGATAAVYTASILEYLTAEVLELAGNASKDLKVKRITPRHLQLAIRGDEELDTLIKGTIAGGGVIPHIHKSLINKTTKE

Results are given in words; binding and its absence hold for the method and conditions named. Binding seen in cells or lysates may run through a third protein. Here binding means that the protein was enriched with, or labelled near, the bait; the list need not be complete. Sequences can lack the tags named with a protein.

T1: GFP-THAL (N-terminal GFP-tagged Thallo) (Arabidopsis thaliana) (UniProt Q8L3P4)
T1 sequence: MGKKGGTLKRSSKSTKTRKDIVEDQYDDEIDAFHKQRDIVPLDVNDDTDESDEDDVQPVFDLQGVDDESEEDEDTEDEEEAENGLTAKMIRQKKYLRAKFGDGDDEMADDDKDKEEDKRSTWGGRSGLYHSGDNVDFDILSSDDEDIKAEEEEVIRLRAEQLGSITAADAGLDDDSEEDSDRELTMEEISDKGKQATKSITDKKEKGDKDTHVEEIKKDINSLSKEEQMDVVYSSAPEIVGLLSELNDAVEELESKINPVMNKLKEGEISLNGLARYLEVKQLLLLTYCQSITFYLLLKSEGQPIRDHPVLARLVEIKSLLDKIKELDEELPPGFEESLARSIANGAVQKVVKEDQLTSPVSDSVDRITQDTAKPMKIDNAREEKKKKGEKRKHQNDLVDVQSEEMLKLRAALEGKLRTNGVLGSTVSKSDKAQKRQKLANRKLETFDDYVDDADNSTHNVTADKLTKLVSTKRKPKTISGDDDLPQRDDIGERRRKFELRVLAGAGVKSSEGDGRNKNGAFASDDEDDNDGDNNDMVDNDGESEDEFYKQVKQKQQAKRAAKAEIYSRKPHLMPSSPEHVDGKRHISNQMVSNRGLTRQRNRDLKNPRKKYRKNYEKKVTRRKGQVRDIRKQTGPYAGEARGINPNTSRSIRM

B1: DEAD box RNA helicase RH3 (EMB1138) (protein, UniProt Q8L7S8 61-748)
chain: AVATPNSVLSEEAFKSLGLSDHDEYDLDGDNNNVEADDGEELAISKLSLPQRLEESLEKRGITHLFPIQRAVLVPALQGRDIIARAKTGTGKTLAFGIPIIKRLTEEAGDYTAFRRSGRLPKFLVLAPTRELAKQVEKEIKESAPYLSTVCVYGGVSYTIQQSALTRGVDVVVGTPGRIIDLIEGRSLKLGEVEYLVLDEADQMLAVGFEEAVESILENLPTKRQSMLFSATMPTWVKKLARKYLDNPLNIDLVGDQDEKLAEGIKLYAIATTSTSKRTILSDLITVYAKGGKTIVFTQTKRDADEVSLALSNSIATEALHGDISQHQRERTLNAFRQGKFTVLVATDVASRGLDIPNVDLVIHYELPNDPETFVHRSGRTGRAGKEGSAILMHTSSQKRTVRSLERDVGCHFEFISPPTVGDLLESSADQVVATLNGVHPDSIKFFSATAQKLYEEKGTDALAAALAHLSGFSQPPSSRSLLSHEKGWVTLQLIRDPTNARGFLSARSVTGFLSDLYRTAADEVGKIFLIADDRIQGAVFDLPEEIAKELLEKDVPEGNSLSMITKLPPLQDDGPSSDNYGRFSSRDRMPRGGGGSRGSRGGRGGSSRGRDSWGGDDDRGSRRSSGGGSSWSRGGSSSRGSSDDWLIGGRSSSSSRAPSRERSFGGSCFICGKSGHRATDCPDKRGF

This test concerns the target T1, GFP-THAL (N-terminal GFP-tagged Thallo) (Arabidopsis thaliana). The experiment in a line: affinity purification with mass spectrometry; immunoprecipitation of GFP-THAL from total proteins of 8-d-old rescued THALpro::GFP-THAL/thal-2 seedlings; proteins also obtained in the WT sample eliminated.
With “histone 2A protein H2A.1 (from UniProt Q9LD28 1-130)”, the binding result is given as “binds”. Then “histone 2A protein H2A.2 (from UniProt O81826 1-131)”, with “binds”.

For “histone 2A protein H2A.10 (from UniProt Q9C681 1-132)”, the binding result is listed as “binds”.

Turning to “histone 2A protein H2A.13 (from UniProt Q9LHQ5 1-132)”, the binding result was “binds”. On to “histone 2A protein H2A.W.6 (from UniProt Q9FJE8 1-150)”, for which the binding result was “binds”. Next, “histone 2A protein H2A.W.7 (from UniProt Q94F49 1-150)”: “binds”; “histone 2A protein H2A.X.3 (from UniProt Q9S9K7 1-142)”: “binds”; “histone 2A protein H2A.X.5 (from UniProt O04848 1-142)”: “binds”.

Take “histone 2A protein H2A.Z.9 (from UniProt Q9C944 1-134)”: the binding entry is reported as “binds”. Consider “histone 2A protein H2A.Z.11 (from UniProt O23628 1-136)”, for which the binding entry is reported as “binds”. For B1, the binding entry is on record as “binds”.
